Reference: publication doi:10.1101/345264
These are yes or no findings as the source states them, for the method shown. Binding seen in cells or lysates may run through a third protein. Some binding calls cover weakened binding; strength is not graded here.

Protein sequences, listed by entry. Tags and fused reporters are not part of them.
UniProt P46938: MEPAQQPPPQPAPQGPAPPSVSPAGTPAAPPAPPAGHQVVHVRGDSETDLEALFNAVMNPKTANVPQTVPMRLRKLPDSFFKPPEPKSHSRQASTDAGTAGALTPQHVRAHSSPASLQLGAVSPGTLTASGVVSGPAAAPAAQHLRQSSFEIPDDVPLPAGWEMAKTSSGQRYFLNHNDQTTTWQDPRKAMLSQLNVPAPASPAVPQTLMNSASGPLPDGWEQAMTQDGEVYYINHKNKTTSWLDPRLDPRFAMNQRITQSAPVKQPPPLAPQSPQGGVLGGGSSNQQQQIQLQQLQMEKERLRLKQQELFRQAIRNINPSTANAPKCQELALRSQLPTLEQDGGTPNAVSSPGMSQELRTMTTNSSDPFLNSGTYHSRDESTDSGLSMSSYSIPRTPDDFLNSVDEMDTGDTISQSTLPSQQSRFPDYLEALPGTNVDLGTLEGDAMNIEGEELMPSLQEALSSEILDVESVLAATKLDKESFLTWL

Molecular target: Yap1 (Hippo pathway transcription co-activator) (mouse (endogenous in mouse brain)) (UniProt P46938)
Test: co-IP

binding: binds
B1: Angiomotin (Amot) (protein, UniProt Q8VHG2 1-1126)
chain: MRSSDDQPSGGTTVLQRLLQEQLRYGNPSENRSLLAIHQQATGNSSPFSTGSGNQGPQNDVLSSQDHHQQQLVAHPARQEPQGQEIQSENGVMEKQLSPRMQNNEELPTYEEAKVQSQYFRGQQHASVGAAFYVTGVTNQKMRTEGRPSVQRLTPGKMHQDEGLRDLKQGHVRSLSERLMQMSLATSGVKAHPPVTSAPLSPPQPNDLYKNATSSSEFYKAQGPPPSQHSLKGMEHRGPPPEYPFKGVPSQSVVCKSQEPGHFYSEHRLNQPGRTEGQLMRYQHPPEYGAARATQDISSLSLSARNSQPHSPTSSLTAGASSLPLLQSPPSTRLPPGQHLVSNQGDHSAHLSRHQQHLLSSQSHQGDHYRHAQASLTSAQQQPGEAYSAMPRAQQSASYQPMPADPFAMVSRAQQMVEILSDENRNLRQELDGCYEKVARLQKVETEIQRVSEAYENLVKSSSKREALEKAMRNKLEGEIRRMHDFNRDLRDRLETANKQLAEKEYEGSEDTRKTISQLFAKHKENQREKEKLEAELATARSTNEDQRRHIEIRDQALSNAQAKVVKLEEELKKKQVYVDKVEKMQQALVQLQAACEKREQLEHRLRTRLERELESLRIQQRQGNSQPTNASEYNAAALMELLREKEERILALEADMTKWEQKYLEENVMRHFALDAAATVAAQRDTTVISHSPNTSYDTALEARIQKEEEEILMANKRCLDMEGRIKTLHAQIIEKDAMIKVLQQRSRKEPSKTEQLSSMRPAKSLMSISNAGSGLLAHSSTLTGAPIMEEKRDDKSWKGSLGVLLGGDYRVEPVPSTPSPVPPSTPLLSAHSKTGSRDCSTQTERGPESTKTAAVTPISAPMAGPVAAAAPAAAINATAATNTATAATNTTIMVAAAPVAVAAVAAPAAAAATPSPANAAALAAAAAPATSVSAATSVSAANSISPAAPVAPAAVVPPAAPVSPAAAVQIPAAASLTPATVSPTAATATAAVAAATTAAITAAAAAATTAIQVAPATSAPVPSPASIPAPATAQASAPTPTQASTPAPTEPPSPVPTPTPALVQTEGPANPGASSGPRRLSTPNLMCNPDKPDAPAFHSSTLERKTPIQILGQEPDAEMVEYLI
